Assay results: US5441563A, “Highly insoluble azole embossing inhibitor and the use thereof” (Armstrong World Industries, Inc., priority 1994, dated 1995)
At least one compound was matched to its structure with a doubt left.

Assay: Inhibitor activity (IA), depth of chemical embossing and degree of expansion ranked against BTA-P (Table II)
Conditions: expected
Method: Table II sets forth a number of properties of the examples and comparative examples which were made and tested. Most of these compounds were prepared using the direct milling procedure and then evaluated for inhibitor activity, ghosting and embossing definition.
The inhibited inks (at 10% by weight inhibitor concentration) were printed on 7 mils of an expandable plastisol coated onto a glass mat which was saturated with a non-expandable plastisol. This was done on a flat-bed gravure proof press using a 100 line screen step-wedge gravure plate. The steps ranged from a deep shadow tone to a shallow highlight tone. The inks printed and dried without any tack.
The printed samples were coated with 10 mils of a clear plastisol wearlayer and heated for 1.9±0.1 minutes at an air temperature of 185°±2° C. in a Werner. Mathis oven to fuse and expand the foamable plastisol to about 14 mils (a 2:1 blow ratio). The thickness of the printed coated areas (i.e., restricted area) was measured in mils and compared to the thickness of the expanded unprinted surrounding areas. This difference was recorded as depth of chemical embossing and was used along with the degree of expansion in the inhibited area to access the inhibitor activity (IA). […]

C1CCc2c(nnn2CN2CCN(Cn3nnc4c3CCCC4)CC2)C1 [N,N'-bis(cyclohexyltriazol-1-ylmethyl) piperazine]
Inhibitor effectiveness in words (not made): effective inhibitor
